Laboratory results: PubChem BioAssay AID1159584 (Peter MacCallum Cancer Centre, 2016)

Purpose: 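Knock-downs that harm CDH1-null cells more than parental MCF10A cells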 (primary screen)
Cell system: human MCF10A breast epithelial cells, parental and CDH1-null
Reagents: siRNA against human genes
Measured: 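Cell viability by CellTiter-Glo ATP luminescence, each line scaled to the mean of mock wells across plates, then CDH1-null over parental ratio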
Scale: CDH1-null / parental viability ratio: higher = CDH1-null cells survive relatively better than parental; CDH1-null viability vs mock: higher = more viable CDH1-null cells; parental viability vs mock: higher = more viable parental cells
This is a random part of about 18,000 deposited reagents. Reagent sequences are not shown. The record does not give: the amount of reagent, the time to read-out.

no.	gene knocked down	CDH1-null / parental viability ratio	CDH1-null viability vs mock (fraction of mock)	parental viability vs mock (fraction of mock)
1	TPRG1 (GeneID 285386)	0.98	0.96	0.98
2	NUDT5 (GeneID 11164)	1.39	1.06	0.76
3	NEFM (GeneID 4741)	0.94	0.76	0.81
4	KRTAP10-9 (GeneID 386676)	1.1	0.69	0.63
5	OR5K3 (GeneID 403277)	1.01	0.98	0.97
6	TIMM10B (GeneID 26515)	0.96	0.9	0.94
7	TUBB (GeneID 203068)	0.97	0.74	0.76
8	ABCB4 (GeneID 5244)	0.88	1	1.13
9	LUZP2 (GeneID 338645)	1.03	0.72	0.7
10	FBXO47 (GeneID 494188)	1.11	0.91	0.82
11	JUN (GeneID 3725)	0.93	0.78	0.84
12	NSMCE1 (GeneID 197370)	0.87	0.96	1.1
13	SGCZ (GeneID 137868)	0.9	0.46	0.51
14	SHF (GeneID 90525)	1.33	0.6	0.45
15	HOXB7 (GeneID 3217)	0.74	0.55	0.74
16	INPP5A (GeneID 3632)	1.64	0.82	0.5
17	TUBB4B (GeneID 10383)	1.03	0.99	0.96
18	XAGE2 (GeneID 9502)	1.02	0.55	0.54
19	FAM153CP (GeneID 653316)	1.36	0.72	0.53
20	ZFP42 (GeneID 132625)	0.89	0.86	0.97
21	KRT18 (GeneID 3875)	0.93	0.54	0.58
22	ADIPOQ (GeneID 9370)	1.03	0.99	0.96
23	RADIL (GeneID 55698)	1.26	0.88	0.7
24	DEFB125 (GeneID 245938)	0.95	0.82	0.86
25	CTSO (GeneID 1519)	1.14	0.91	0.8
26	DCAF17 (GeneID 80067)	1.01	0.82	0.81
27	NDUFAF2 (GeneID 91942)	1.17	0.81	0.69
28	SLC24A5 (GeneID 283652)	1.03	0.64	0.62
29	APOBEC1 (GeneID 339)	0.78	0.58	0.74
30	OMD (GeneID 4958)	1.14	1.09	0.96
31	GSPT2 (GeneID 23708)	0.94	1	1.06
32	TONSL (GeneID 4796)	0.91	0.8	0.88
33	MED16 (GeneID 10025)	0.79	0.49	0.62
34	HOXA5 (GeneID 3202)	1	0.66	0.66
35	P2RX4 (GeneID 5025)	1.36	1.17	0.86
36	CIMIP1 (GeneID 128602)	0.9	0.7	0.78
37	DDRGK1 (GeneID 65992)	0.9	0.69	0.77
38	FANCM (GeneID 57697)	0.59	0.41	0.7
39	SLC25A15 (GeneID 10166)	0.99	0.82	0.83
40	BCLAF1 (GeneID 9774)	1.1	0.86	0.78
41	ABI3 (GeneID 51225)	1.2	1.02	0.85
42	LRRC37B (GeneID 114659)	1.17	0.89	0.76
43	ZNF713 (GeneID 349075)	1.29	0.62	0.48
44	FGD5 (GeneID 152273)	1.2	0.78	0.65
45	CPLANE2 (GeneID 79363)	0.82	0.7	0.85
46	NPAP1 (GeneID 23742)	0.96	0.69	0.72
47	ICOS (GeneID 29851)	1.18	0.92	0.78
48	SIK2 (GeneID 23235)	0.89	0.49	0.55
49	COL6A1 (GeneID 1291)	0.94	0.49	0.52
50	PRDM9 (GeneID 56979)	1.06	0.92	0.87
51	SYF2 (GeneID 25949)	1.11	0.8	0.72
52	TNNT3 (GeneID 7140)	1.08	1.17	1.08
53	CCT8L1P (GeneID 155100)	0.85	0.74	0.87
54	DYNC1I1 (GeneID 1780)	0.88	0.76	0.86
55	TRIM5 (GeneID 85363)	0.58	0.33	0.57
56	SPI1 (GeneID 6688)	0.7	0.5	0.71
57	LDLRAD2 (GeneID 401944)	1.15	0.76	0.66
58	DSCR9 (GeneID 257203)	1.17	0.69	0.59
59	CCR5 (GeneID 1234)	0.91	0.91	1
60	RABGEF1 (GeneID 27342)	0.78	0.53	0.68
61	TOP2B (GeneID 7155)	1	0.99	0.99
62	IL36B (GeneID 27177)	0.73	0.7	0.96
63	CUL9 (GeneID 23113)	1.02	0.96	0.94
64	GTF3C5 (GeneID 9328)	1.1	0.88	0.8
65	LZTS2 (GeneID 84445)	1.04	0.59	0.57
66	OSGEP (GeneID 55644)	1.12	1.01	0.9
67	SCN1B (GeneID 6324)	1.42	0.78	0.55
68	SEC22B (GeneID 9554)	0.85	0.68	0.8

Records above whose gene name starts with A or a:
gene knocked down	CDH1-null / parental viability ratio	CDH1-null viability vs mock (fraction of mock)	parental viability vs mock (fraction of mock)
ABCB4 (GeneID 5244)	0.88	1	1.13
ADIPOQ (GeneID 9370)	1.03	0.99	0.96
APOBEC1 (GeneID 339)	0.78	0.58	0.74
ABI3 (GeneID 51225)	1.2	1.02	0.85
